Data published in publication PMC12165855.
No constants are given. Whether binding was seen depends on the method and setting. Binding seen in cells or lysates may run through a third protein. A yes stands for co-enrichment or nearness to the bait. Other partners may have been found.

Protein sequences, listed by entry. Tags and fused reporters are not part of them. Lines headed by an entry give the natural chain unless they say otherwise; changes in a name come on top.
UniProt P07711: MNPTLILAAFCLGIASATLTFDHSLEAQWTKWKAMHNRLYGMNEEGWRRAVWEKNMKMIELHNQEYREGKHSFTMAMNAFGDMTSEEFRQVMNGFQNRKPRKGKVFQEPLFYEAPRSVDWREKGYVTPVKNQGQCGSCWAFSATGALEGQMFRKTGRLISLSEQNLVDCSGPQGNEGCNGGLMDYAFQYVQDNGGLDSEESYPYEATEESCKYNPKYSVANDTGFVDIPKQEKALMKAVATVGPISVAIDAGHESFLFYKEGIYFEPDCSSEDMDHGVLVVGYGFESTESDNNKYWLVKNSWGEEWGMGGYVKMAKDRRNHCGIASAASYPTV
UniProt Q9BUQ8: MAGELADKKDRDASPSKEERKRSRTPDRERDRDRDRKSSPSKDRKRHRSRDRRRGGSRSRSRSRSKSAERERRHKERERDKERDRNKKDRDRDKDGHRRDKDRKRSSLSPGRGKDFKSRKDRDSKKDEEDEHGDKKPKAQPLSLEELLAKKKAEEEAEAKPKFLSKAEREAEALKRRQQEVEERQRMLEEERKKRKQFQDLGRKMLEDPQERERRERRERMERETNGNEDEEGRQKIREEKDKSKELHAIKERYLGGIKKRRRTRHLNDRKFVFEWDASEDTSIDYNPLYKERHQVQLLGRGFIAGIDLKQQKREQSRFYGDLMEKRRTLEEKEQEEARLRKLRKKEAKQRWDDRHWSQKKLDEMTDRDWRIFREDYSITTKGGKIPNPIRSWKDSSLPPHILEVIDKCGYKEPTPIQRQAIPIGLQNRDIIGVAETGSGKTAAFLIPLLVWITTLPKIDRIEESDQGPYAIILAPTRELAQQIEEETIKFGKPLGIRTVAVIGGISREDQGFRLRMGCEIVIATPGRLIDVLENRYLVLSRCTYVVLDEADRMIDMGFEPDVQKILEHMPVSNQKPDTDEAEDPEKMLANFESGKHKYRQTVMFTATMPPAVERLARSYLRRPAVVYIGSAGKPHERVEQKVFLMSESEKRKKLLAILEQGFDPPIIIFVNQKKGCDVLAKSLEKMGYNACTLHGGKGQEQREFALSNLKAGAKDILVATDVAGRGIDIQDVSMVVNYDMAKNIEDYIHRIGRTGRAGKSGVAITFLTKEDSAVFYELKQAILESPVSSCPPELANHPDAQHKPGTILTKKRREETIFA

These molecules were tested against cathepsin L (human (endogenous in SUM149)) (UniProt P07711) (assay: affinity purification with mass spectrometry; CTSL immunoprecipitated from SUM149 cells (Dox-inducible shKDM4C #17 and #20 lines without Dox; also #17 with Dox, KDM4C knockdown), on-bead trypsin digest, isotopic labelling, compared to IgG control).

Row | Molecule | binding
1 | CTS3 cysteine protease inhibitor (protein, UniProt P01034 27-146) SSPGKPPRLVGGPMDASVEEEGVRRALDFAVGEYNKASNDMYHSRALQVVRARKQIVAGVNYFLDVELGRTTCTKTQPNLDNCPFHDQPHLKRKAFCSFQIYAVPWQGTMTLSKSTCQDA | binds
2 | CTSB cysteine protease inhibitor (protein, UniProt P04080 1-98) MMCGAPSATQPATAETQHIADQVRSQLEEKENKKFPVFKAVSFKSQVVAGTNYFIKVHVGDEDFVHLRVFQSLPHENKPLTLSNYQTNKAKHDELTYF | binds

Second part, the molecule after the results:

Row | binding | Molecule
3 | binds | DEAD-Box helicase 23 (from UniProt Q9BUQ8 1-820)
4 | binds | grainyhead-like 2 transcription factor (protein, UniProt Q6ISB3 1-625) MSQESDNNKRLVALVPMPSDPPFNTRRAYTSEDEAWKSYLENPLTAATKAMMSINGDEDSAAALGLLYDYYKVPRDKRLLSVSKASDSQEDQEKRNCLGTSEAQSNLSGGENRVQVLKTVPVNLSLNQDHLENSKREQYSISFPESSAIIPVSGITVVKAEDFTPVFMAPPVHYPRGDGEEQRVVIFEQTQYDVPSLATHSAYLKDDQRSTPDSTYSESFKDAATEKFRSASVGAEEYMYDQTSSGTFQYTLEATKSLRQKQGEGPMTYLNKGQFYAITLSETGDNKCFRHPISKVRSVVMVVFSEDKNRDEQLKYWKYWHSRQHTAKQRVLDIADYKESFNTIGNIEEIAYNAVSFTWDVNEEAKIFITVNCLSTDFSSQKGVKGLPLMIQIDTYSYNNRSNKPIHRAYCQIKVFCDKGAERKIRDEERKQNRKKGKGQASQTQCNSSSDGKLAAIPLQKKSDITYFKTMPDLHSQPVLFIPDVHFANLQRTGQVYYNTDDEREGGSVLVKRMFRPMEEEFGPVPSKQMKEEGTKRVLLYVRKETDDVFDALMLKSPTVKGLMEAISEKYGLPVEKIAKLYKKSKKGILVNMDDNIIEHYSNEDTFILNMESMVEGFKVTLMEI
